{"source": "the supplement of paper PMC7125110", "parents": {"B1": {"name": "glmS ribozyme (parent)", "chain": "AUAAAAGCGCCAGAACUACAGAAAUGUAGUUGACGAGGAGGAGGUUUAUCGAAUUUUCGGCGGAUGCCUCCAAA"}}, "note": "± gives the standard error. Many entries were measured with a wide error.", "data": [{"variants_of": "B1", "test": "self-cleavage kobs at 640 uM GlcN6P; higher = faster cleavage; RNA array", "conditions": "with glucosamine-6-phosphate", "method_in_brief": "(§1)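 kobs was derived by fitting per-tile medians to one- or two-exponential decays after normalising signals to baseline and to non-cleaving reference variants. Those signals came from barcoded ribozyme variants transcribed in situ by E. coli RNA polymerase on sequenced MiSeq chips, followed through a hybridised Cy3 probe at 37 °C and imaged over ~14 h. Glucosamine-6-phosphate (40 μM to 10 mM) in HEPES/KCl/Mg(OAc)2 buffer was flowed in. Weighted Michaelis–Menten fits across concentrations then gave kcat and KM.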", "units": {"self-cleavage kobs at 640 uM GlcN6P": "s⁻¹"}, "values": [{"variant": "AUAAAAGCGCCAUAACUACAGAAAUGUAGUUGACGAAGAGGAGGUUUAUCGAAUUUUCGGCGGAUGCCUCCAAA", "note": "[G13U G37A]", "self-cleavage kobs at 640 uM GlcN6P": "3.28e-05 ± 3.1e-05"}, {"variant": "AUAAAAGCGCCAGCACUACAGAAAUGUAGGUGACGAGGAGGGGGUUUAUCGACUUUUCGGCGGAUGCCUCCAAA", "note": "[A14C U30G A42G A53C]", "self-cleavage kobs at 640 uM GlcN6P": "2.91e-05 ± 1.6e-05"}, {"variant": "AUAAAAGCGCCAGCACUACAGAAAUGUAGUUGACGAGGAGGAGGAUUAUCGAAUUUACGGCGGAUGCCUCCAAA", "note": "[A14C U45A U57A]", "self-cleavage kobs at 640 uM GlcN6P": "2.22e-05 ± 2.1e-05"}, {"variant": "AUAAAAGCGCCAGGACUACAGAAAUGUAGUUGACGAGGAGGGGGUUUAUCGUAUUUUCGGCGGAUGCCUCCAAA", "note": "[A14G A42G A52U]", "self-cleavage kobs at 640 uM GlcN6P": "3.81e-05 ± 3.3e-05"}, {"variant": "AUAAAAGCGCCAGGACUACAGAAAUGUAGUUGACGAGGAGGAGGUUUAUAGAAUUUUCGGCGGUUGCCUUCAAA", "note": "[A14G C50A A64U C70U]", "self-cleavage kobs at 640 uM GlcN6P": "4.59e-05 ± 2.4e-05"}, {"variant": "AUAAAAGCGCCAGUACUACAGAAAUGUAGUUGGCGAGGAGGAGGUUUAUCGGAUUUUCGGCGGAUGCUUGAAAA", "note": "[A14U A33G A52G C68U C70G C71A]", "self-cleavage kobs at 640 uM GlcN6P": "5.49e-05 ± 4.5e-05"}, {"variant": "AUAAAAGCGCCAGUAGUACAGAAAUGUAGUUGACGAGGAGGAGGUUUAUCGAAUUUUCGGCGGAAGCCUCCAAA", "note": "[A14U C16G U65A]", "self-cleavage kobs at 640 uM GlcN6P": "3.11e-05 ± 2.8e-05"}, {"variant": "AUAAAAGCGCCAGUACUACAGAAAUGUAGUUGACGAGGAGGAGGUUUAUUGAAUUUUCGGCGGAUGCAUCCAAA", "note": "[A14U C50U C68A]", "self-cleavage kobs at 640 uM GlcN6P": "4.28e-05 ± 2.4e-05"}, {"variant": "AUAAAAGCGCCAGUACUACAGAAAUGUAGUUGACGAGGAGGAGGUUUAUUGAAUUUUCGGCGGAUGCUUCCAAA", "note": "[A14U C50U C68U]", "self-cleavage kobs at 640 uM GlcN6P": "3.44e-05 ± 2.4e-05"}, {"variant": "AUAAAAGCGCCAGUACUACAGAAAUGUAGUUGACGAGGAGGAGGUGUAUCGAAUUUUCGGCGAAAGCCUGGAAA", "note": "[A14U U46G G63A U65A C70G C71G]", "self-cleavage kobs at 640 uM GlcN6P": "0.00046 ± 0.00025"}, {"variant": "AUAAAAGCGCCAGACCUACAGAAAUGUAGUUGACGAGGAGGAGGUUUAUCGAAUUUUCGGCGGAUGCGUCCAAA", "note": "[A15C C68G]", "self-cleavage kobs at 640 uM GlcN6P": "2.28e-05 ± 1.4e-05"}, {"variant": "AUAAAAGCGCCAGAUGUACAGAAAUGUAGUUGACGAGGAGGAGGUUUAUCGAAUUUUAGGCGGAUGCCUCCAAA", "note": "[A15U C16G C58A]", "self-cleavage kobs at 640 uM GlcN6P": "3.41e-05 ± 1.9e-05"}, {"variant": "AUAAAAGCGCCAGAAAUACAGAAAUGUAGUUGACGCGGAGGAGGUUUAUCAAUUUUUCGGCGGAUGCCGCCAAA", "note": "[C16A A36C G51A A53U U69G]", "self-cleavage kobs at 640 uM GlcN6P": "0.000755 ± 0.00052"}, {"variant": "AUAAAAGCGCCAGAAAUACAGAAAUGUAGUUGACGAGGAGGAGGUUUAUUGAAUUCUUGGCGGAAGCCUCAAAA", "note": "[C16A C50U U56C C58U U65A C71A]", "self-cleavage kobs at 640 uM GlcN6P": "5.68e-05 ± 3.1e-05"}, {"variant": "AUAAAAGCGCCAGAAAUACAGAAAUGUAGUUGACGAGGAGGAGGUUUAUCGAAUUUUCAGCGGAUGCCUGCAAA", "note": "[C16A G59A C70G]", "self-cleavage kobs at 640 uM GlcN6P": "3.23e-05 ± 3e-05"}, {"variant": "AUAAAAGCGCCAGAACUACAUAAAUGUAGUUGACGAGAAGGAGGUUCAUCGAAUUUUCGGCGCAUGCCUCGAAA", "note": "[G21U G38A U47C G63C C71G]", "self-cleavage kobs at 640 uM GlcN6P": "2.79e-05 ± 2.6e-05"}, {"variant": "AUAAAAGCGCCAGAACUACAGAAAUGUAAUUGACGAGGAGGAGGUUUAUCGAAUUUUUGGCGGAGGCCCCCAAA", "note": "[G29A C58U U65G U69C]", "self-cleavage kobs at 640 uM GlcN6P": "3.25e-05 ± 2e-05"}, {"variant": "AUAAAAGCGCCAGAACUACAGAAAUGUAAUUGACGAGGAGGAGGUUUAUCGAAUUUUCGGCGCAUGCGUCCAAA", "note": "[G29A G63C C68G]", "self-cleavage kobs at 640 uM GlcN6P": "5.51e-05 ± 4.8e-05"}, {"variant": "AUAAAAGCGCCAGAACUACAGAAAUGUACUUGACGAGGAGGAGGCUUAUCGAAUUUUCGGCGGAUGCCUCCAAA", "note": "[G29C U45C]", "self-cleavage kobs at 640 uM GlcN6P": "2.25e-05 ± 1.4e-05"}, {"variant": "AUAAAAGCGCCAGAACUACAGAAAUGUAUUUGACGAGGAGGAGGUUUAUCGAAUUUUCGGCGGAUGCGUCCAAA", "note": "[G29U C68G]", "self-cleavage kobs at 640 uM GlcN6P": "2.58e-05 ± 1.5e-05"}, {"variant": "AUAAAAGCGCCAGAACUACAGAAAUGUAUUUAACGAGGAGGAGGUUUAUCGACUUUUCGGCGGAUGCCUCCAAA", "note": "[G29U G32A A53C]", "self-cleavage kobs at 640 uM GlcN6P": "2.03e-05 ± 1.5e-05"}, {"variant": "AUAAAAGCGCCAGAACUACAGAAAUGUAUUUGACGAGAAGGAGGUUUAUCGAAUUUUCAGCGGAUGACGCCAAA", "note": "[G29U G38A G59A C67A U69G]", "self-cleavage kobs at 640 uM GlcN6P": "2.81e-05 ± 2.6e-05"}, {"variant": "AUAAAAGCGCCAGAACUACAGAAAUGUAUUUGACGAGGAGGAGGUUUAUCGAAUGUUCGGCGGAUUUCUCCAAA", "note": "[G29U U55G G66U C67U]", "self-cleavage kobs at 640 uM GlcN6P": "4.09e-05 ± 2.7e-05"}, {"variant": "AUAAAAGCGCCAGAACUACAGAAAUGUAGUAGACGAGGAGGAGGUUUGUCGAAUUUUCGGCGGAUGCCUCCAAA", "note": "[U31A A48G]", "self-cleavage kobs at 640 uM GlcN6P": "1.83e-05 ± 1.7e-05"}, {"variant": "AUAAAAGCGCCAGAACUACAGAAAUGUAGUCGACGCGGAGGAGGUUUAUCGAAGUUUCGGCGGGUGCCUACAAA", "note": "[U31C A36C U54G A64G C70A]", "self-cleavage kobs at 640 uM GlcN6P": "4.3e-05 ± 3.6e-05"}, {"variant": "AUAAAAGCGCCAGAACUACAGAAAUGUAGUCGACGAGGAGGAGGUUUAUCGAAUUUUCGGCGGAUUCCUCCAAA", "note": "[U31C G66U]", "self-cleavage kobs at 640 uM GlcN6P": "2.85e-05 ± 1.4e-05"}, {"variant": "AUAAAAGCGCCAGAACUACAGAAAUGUAGUCGACGAGGAGGAGGUUUAUCGAAUGUUCGGCGGAUUCCGCGAAA", "note": "[U31C U55G G66U U69G C71G]", "self-cleavage kobs at 640 uM GlcN6P": "0.000163 ± 8.4e-05"}, {"variant": "AUAAAAGCGCCAGAACUACAGAAAUGUAGUGCACGAGGAGGAGGUUUAUCGAAUUUUCGGCGGAUACCUCCAAA", "note": "[U31G G32C G66A]", "self-cleavage kobs at 640 uM GlcN6P": "2.47e-05 ± 1.5e-05"}]}, {"variants_of": "B1", "test": "self-cleavage kobs at 160 uM GlcN6P; higher = faster cleavage; RNA array", "conditions": "with glucosamine-6-phosphate", "method_in_brief": "as §1", "units": {"self-cleavage kobs at 160 uM GlcN6P": "s⁻¹"}, "values": [{"variant": "AUAAAAGCGCCAGGACUACAGAAAUGUAGUUGACGAGGAGGAGGUUUAUAGAAUUUUCGGCGGUUGCCUUCAAA", "note": "[A14G C50A A64U C70U]", "self-cleavage kobs at 160 uM GlcN6P": "2.85e-05 ± 2.5e-05"}, {"variant": "AUAAAAGCGCCAGAACUACAGAAAUGUAUUUGACGAGGAGGAGGUUUAUCGAAUUUUCGGCGGAUGCGUCCAAA", "note": "[G29U C68G]", "self-cleavage kobs at 160 uM GlcN6P": "2.25e-05 ± 1.5e-05"}]}, {"variants_of": "B1", "test": "self-cleavage kobs at 2500 uM GlcN6P; higher = faster cleavage; RNA array", "conditions": "with glucosamine-6-phosphate", "method_in_brief": "as §1", "units": {"self-cleavage kobs at 2500 uM GlcN6P": "s⁻¹"}, "values": [{"variant": "AUAAAAGCGCCAGUACUACAGAAAUGUAGUUGACGAGGAGGAGGUUUAUUGAAUUUUCGGCGGAUGCUUCCAAA", "note": "[A14U C50U C68U]", "self-cleavage kobs at 2500 uM GlcN6P": "7.55e-05 ± 4e-05"}, {"variant": "AUAAAAGCGCCAGAAAUACAGAAAUGUAGUUGACGCGGAGGAGGUUUAUCAAUUUUUCGGCGGAUGCCGCCAAA", "note": "[C16A A36C G51A A53U U69G]", "self-cleavage kobs at 2500 uM GlcN6P": "0.000127 ± 7.4e-05"}, {"variant": "AUAAAAGCGCCAGAACUACAGAAAUGUAUUUGACGAGAAGGAGGUUUAUCGAAUUUUCAGCGGAUGACGCCAAA", "note": "[G29U G38A G59A C67A U69G]", "self-cleavage kobs at 2500 uM GlcN6P": "3.21e-05 ± 1.9e-05"}, {"variant": "AUAAAAGCGCCAGAACUACAGAAAUGUAUUUGACGAGGAGGAGGUUUAUCGAAUGUUCGGCGGAUUUCUCCAAA", "note": "[G29U U55G G66U C67U]", "self-cleavage kobs at 2500 uM GlcN6P": "2.18e-05 ± 2e-05"}, {"variant": "AUAAAAGCGCCAGAACUACAGAAAUGUAGUCGACGAGGAGGAGGUUUAUCGAAUGUUCGGCGGAUUCCGCGAAA", "note": "[U31C U55G G66U U69G C71G]", "self-cleavage kobs at 2500 uM GlcN6P": "5.17e-05 ± 2.8e-05"}]}, {"variants_of": "B1", "test": "self-cleavage kobs at 10000 uM GlcN6P; higher = faster cleavage; RNA array", "conditions": "with glucosamine-6-phosphate", "method_in_brief": "as §1", "units": {"self-cleavage kobs at 10000 uM GlcN6P": "s⁻¹"}, "values": [{"variant": "AUAAAAGCGCCAGUACUACAGAAAUGUAGUUGACGAGGAGGAGGUGUAUCGAAUUUUCGGCGAAAGCCUGGAAA", "note": "[A14U U46G G63A U65A C70G C71G]", "self-cleavage kobs at 10000 uM GlcN6P": "2.57e-05 ± 2.2e-05"}, {"variant": "AUAAAAGCGCCAGAACUACAGAAAUGUAUUUGACGAGGAGGAGGUUUAUCGAAUUUUCGGCGGAUGCGUCCAAA", "note": "[G29U C68G]", "self-cleavage kobs at 10000 uM GlcN6P": "1.86e-05 ± 1.3e-05"}]}]}
